# Hit rate of the full screen: of about 360,000 compounds, about 10,000 (2.8%) were called active. Inconclusive results, whose numbers are uncertain, are shown with a selection of clear calls. The call rests on the fitted dose curve; in most records, active means well fitted inhibition curve with a large enough effect; inconclusive means small, poorly fitted or top-dose-only effect; inactive means flat fitted curve, though single readings scatter. Where the call is inconclusive, the potency comes from a doubtful curve fit.
# By UniProt entry, the sequences of proteins in these tests, tags left out.
# UniProt P53350, whole entry, looked up: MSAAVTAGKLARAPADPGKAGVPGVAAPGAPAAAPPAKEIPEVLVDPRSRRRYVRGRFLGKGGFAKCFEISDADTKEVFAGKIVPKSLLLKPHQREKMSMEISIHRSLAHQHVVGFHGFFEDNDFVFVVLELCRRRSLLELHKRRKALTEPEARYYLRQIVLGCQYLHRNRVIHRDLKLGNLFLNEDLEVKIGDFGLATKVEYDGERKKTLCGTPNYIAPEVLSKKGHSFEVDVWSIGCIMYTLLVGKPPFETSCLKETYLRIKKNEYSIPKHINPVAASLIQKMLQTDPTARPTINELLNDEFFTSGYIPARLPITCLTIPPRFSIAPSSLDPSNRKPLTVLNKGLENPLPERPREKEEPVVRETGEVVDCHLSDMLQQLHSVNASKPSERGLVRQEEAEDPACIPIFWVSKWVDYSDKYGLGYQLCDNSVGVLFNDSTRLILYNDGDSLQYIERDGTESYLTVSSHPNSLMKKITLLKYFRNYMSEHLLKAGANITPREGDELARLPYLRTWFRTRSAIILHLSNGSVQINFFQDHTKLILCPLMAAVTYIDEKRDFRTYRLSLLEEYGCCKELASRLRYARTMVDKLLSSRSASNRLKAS
# Target: Serine/threonine-protein kinase PLK1 (Homo sapiens) (UniProt P53350)
# Assay: qHTS for Inhibitors of PLK1-PDB (polo-like kinase 1 - polo-box domain): Primary Screen; further: nearly all actives have a fitted effect of over 65% in size; on max response, negative = inhibition: series mostly up to about 57 µM
# Settings: Plk1 PBD binding of FITC phosphopeptide, fluorescence polarization
# On the % scale 0 is the no-effect control and ±100 the full control effect; potency means the concentration at half of the fitted maximal effect.
Structure (SMILES),"max response, negative = inhibition",Potency
Cc1ccc2cc(C(c3nnnn3C(C)(C)C)N3CCCCCC3)c(=O)[nH]c2c1 (configuration not stated),inactive: -1.76%,
Cc1ccc(-n2c(-c3ccco3)n[nH]c2=S)cc1,inactive: -6.53%,
O=C(NCCN1CCC(n2c(=O)[nH]c3ccccc32)CC1)c1ccc(F)cc1,inactive: -5.71%,
CCC(C)(C)c1ccc(Oc2cccc(C(=O)O)c2)cc1,,"inconclusive: 29.9 µM [inhibitor, single point]"
COc1cccc(C(=O)NC(=S)Nc2ccc(Cl)cc2C(=O)O)c1,,"inconclusive: 29.9 µM [inhibitor, single point]"
CC(C)C1NC2(C(=O)c3ccccc3C2=O)C2C(=O)N(c3ccc(F)cc3)C(=O)C12 (configuration not stated),,"inconclusive: 23.8 µM [inhibitor, single point]"
CC(c1ccccc1)N1C(=O)c2ccc(C(=O)Nc3ccc(Br)cc3C(=O)O)cc2C1=O (configuration not stated),,active: 23.8 µM
CC(=O)NC(Cc1ccccc1)C(=O)NC1CCN(C(=O)c2ccc([N+](=O)[O-])cc2)CC1 (configuration not stated),,active: 3.36 µM
Cc1ccc(S(=O)(=O)N2[C@@H](c3ccccc3F)C(C(=O)O)=CC[C@H]2c2ccc(Cl)c(Cl)c2)cc1,,"inconclusive: 21.2 µM [inhibitor, single point]"
CCOC(=O)CNC(=O)CSc1ccc2nnc(-c3ccc(F)cc3)n2n1,,"inconclusive: 23.8 µM [inhibitor, single point]"
COc1c(Br)cc(Br)cc1/C=N/n1c(C)nnc1C,,active: 26.7 µM
Cc1[nH][nH]c(=O)c1C(c1c(C)[nH][nH]c1=O)c1cn(Cc2ccccc2Cl)c2ccccc12,,"inconclusive: 13.4 µM [inhibitor, partial curve]"
N#Cc1ccc(OCC(=O)NN2Cc3ccccc3C2=N)cc1,,"inconclusive: 23.8 µM [inhibitor, single point]"
O=C(CCS(=O)(=O)c1ccccc1)N(CCCN1CCOCC1)c1nc2ccccc2s1,,"inconclusive: 13.4 µM [inhibitor, partial curve]"
COc1ccc(/C=C2\SC(=S)N(C(C)C(=O)NC3C=CS(=O)(=O)C3)C2=O)cc1 (configuration not stated),,"inconclusive: 21.2 µM [inhibitor, partial curve]"
CCC1=C(OC(=O)N(CC)CC)N2C(=O)OC(=NCCc3c[nH]c4ccccc34)[C@]2(Cc2ccccc2)[C@H]2C1=CC[C@H]1C(=O)N(CC(=O)OC)C(=O)[C@H]12,inactive: -4%,
Cc1ccc(S(=O)(=O)N2CCN=C2SCc2ccccc2)cc1,,active: 29.9 µM
CCOC(=O)N1CCc2c(sc3c2C(=O)NC(c2ccccc2)N3)C1 (configuration not stated),,"inconclusive: 29.9 µM [inhibitor, single point]"
CCOn1c(=O)c(-c2ccc(OC)cc2)[n+]([O-])c2ccccc21,,"inconclusive: 23.8 µM [inhibitor, partial curve]"
O=C(Cn1ncc(Cl)c(Cl)c1=O)NCC1CCCCC1,inactive: -25.3%,
COc1ccc(N=Nc2nc3cc(Br)c(Br)cc3n2C)c(OC)c1,,"inconclusive: 21.2 µM [inhibitor, single point]"
COCCCNC(=O)c1cc(S(=O)(=O)NCCCN2CCCC2=O)ccc1Cl,inactive: -9.84%,
CC(C)Oc1ccc(C(=O)Nc2ccc(N(C)C)cc2)cc1,inactive: -1.3%,

# Quoted from the results shown, 5 compounds:
Structure (SMILES),"max response, negative = inhibition",Potency
COc1ccc(/C=C2\SC(=S)N(C(C)C(=O)NC3C=CS(=O)(=O)C3)C2=O)cc1 (configuration not stated),,"inconclusive: 21.2 µM [inhibitor, partial curve]"
CCC1=C(OC(=O)N(CC)CC)N2C(=O)OC(=NCCc3c[nH]c4ccccc34)[C@]2(Cc2ccccc2)[C@H]2C1=CC[C@H]1C(=O)N(CC(=O)OC)C(=O)[C@H]12,inactive: -4%,
Cc1ccc(S(=O)(=O)N2CCN=C2SCc2ccccc2)cc1,,active: 29.9 µM
CCOC(=O)N1CCc2c(sc3c2C(=O)NC(c2ccccc2)N3)C1 (configuration not stated),,"inconclusive: 29.9 µM [inhibitor, single point]"
CCOn1c(=O)c(-c2ccc(OC)cc2)[n+]([O-])c2ccccc21,,"inconclusive: 23.8 µM [inhibitor, partial curve]"

# Continued:

Structure (SMILES),"max response, negative = inhibition",Potency
Cc1ccc(C)c(N=C2CCCN2Cc2ccccc2)c1C#N,inactive: -5.69%,
Cc1n[nH]c(=O)c2c(NC(=O)CSc3nn(-c4ccc(F)cc4)c(=S)s3)oc(C)c12,,"inconclusive: 23.8 µM [inhibitor, partial curve]"
Cc1ccc(SCCC(=O)OC(C(=O)NC(N)=O)C(C)C)cc1 (configuration not stated),,"inconclusive: 33.6 µM [inhibitor, single point]"
COCc1nnc(NC(=O)c2ccc(S(=O)(=O)N(C)c3ccccc3)cc2)o1,inactive: -15.2%,
COC(=O)[C@@]12C[C@@H](CC(=O)N3CCCC3)C(=O)N(Cc3ccco3)C1=CCC(C)(C)C2,inactive: -12.7%,
CC(C)c1ccc(NC2CCCN(C(=O)c3ccc(Cn4cnnn4)cc3)C2)cc1 (configuration not stated),,"inconclusive: 1.68 µM [inhibitor, full curve, poor fit]"
CN(C)c1cccc(C(=O)n2cc(C(=O)c3cc(F)ccc3O)cn2)c1,,"inconclusive: 21.2 µM [inhibitor, partial curve]"
CN(Cc1cc2ccccc2[nH]c1=O)S(=O)(=O)c1ccccc1,,"inconclusive: 26.7 µM [inhibitor, partial curve]"
Cc1cc(OC(C)C(=O)NC2CCN(Cc3ccccc3)CC2)c2c(C)cc(=O)oc2c1 (configuration not stated),,"inconclusive: 29.9 µM [inhibitor, single point]"
COC(=O)Cc1c(C)[nH]n(-c2cc(Cl)cc(Cl)c2)c1=O,,"inconclusive: 11.9 µM [inhibitor, partial curve]"
Cc1cccc(CS(=O)(=O)Cc2ccc(C(=O)NC(C)c3ccccc3)o2)c1 (configuration not stated),inactive: -13.4%,
Cn1c(N)c(C(=O)CCl)c(=O)n(C)c1=O,,"inconclusive: 18.9 µM [inhibitor, partial curve]"
Cn1cnnc1SC(C(=O)c1ccccc1)c1ccccc1 (configuration not stated),,"inconclusive: 29.9 µM [inhibitor, partial curve]"
CCO/C(C)=C1\N=C(c2ccc(Cl)cc2)OC1=O,,"inconclusive: 23.8 µM [inhibitor, single point]"
CN(C)c1ccc(CN(C(=O)c2cccs2)C2CCS(=O)(=O)C2)cc1 (configuration not stated),inactive: -4.64%,
Cc1ccc(C(=O)Nc2nnc(NC(=S)Nc3ccccc3)s2)cc1,,"inconclusive: 11.9 µM [inhibitor, partial curve, poor fit]"
O=C1C(Cl)=C(N2CCCCCC2)C(=O)N1c1ccccc1Cl,,"inconclusive: 33.6 µM [inhibitor, partial curve, poor fit]"
COc1ccc(/C=C/C(=O)c2ccc([N+](=O)[O-])o2)cc1OC,,"inconclusive: 23.8 µM [inhibitor, partial curve]"
O=C(CCc1ccccc1)OCC(=O)c1ccc([N+](=O)[O-])cc1,,"inconclusive: 8.44 µM [inhibitor, single point]"
CCCCNC(=O)c1sc(=S)n2c1[nH]c(=O)c1ccc(C(=O)NCCc3ccc(OC)c(OC)c3)cc12,,"inconclusive: 26.7 µM [inhibitor, single point]"
O=C1NC(c2cc(Cl)cc([N+](=O)[O-])c2O)Nc2ccccc21 (configuration not stated),,"inconclusive: 37.7 µM [inhibitor, single point]"
CCc1ccc(/C([O-])=C(/C(=S)NCCN2CCOCC2)[n+]2ccccc2)cc1,,"inconclusive: 29.9 µM [inhibitor, partial curve]"
c1ccc2c(c1)ncn2Cc1nnc2sc(-c3ccc4c(c3)OCO4)nn12,,active: 18.9 µM

Structure (SMILES),"max response, negative = inhibition",Potency
CC1=NN(C(C#N)c2ccccc2C)C(C)(C)C1 (configuration not stated),inactive: -3.01%,
Cc1ccc(OCCCN2C(=O)C(=O)c3cccc(C)c32)cc1,,"inconclusive: 26.7 µM [inhibitor, single point]"
COCOCCn1cc(CN2CCS(=O)(=O)N(Cc3ccc(-c4ccc(C)cc4)cc3)C(C)C2=O)nn1 (configuration not stated),inactive: -1.74%,
Cc1cc(C)n(/N=C/c2cc([N+](=O)[O-])ccc2O)c(=O)c1,inactive: -1.37%,
CCOc1ccccc1CN1CCNC(=O)C1CC(=O)NC1CCCCCCC1 (configuration not stated),inactive: -13.5%,
CCC(c1nnnn1CCc1ccccc1)N1CCN(C(=O)c2ccco2)CC1 (configuration not stated),inactive: -4.13%,
Cc1ccc(OCCN2CCNCC2)c([N+](=O)[O-])c1,,"inconclusive: 23.8 µM [inhibitor, partial curve]"
C=CCC1CCCC(=O)N2CCCC12 (configuration not stated),inactive: -4.14%,
Nc1[nH]c(=O)[nH]c(=O)c1N=Cc1ccccc1,,"inconclusive: 21.2 µM [inhibitor, partial curve]"
COc1ccc(Cl)cc1Nc1nc(-c2sc(NC(=O)C(C)(C)C)nc2C)cs1,,"inconclusive: 23.8 µM [inhibitor, single point]"
CC1(C)CC(=O)C(CS(=O)(=O)c2ccccc2)=C(O)C1,,"inconclusive: 18.9 µM [inhibitor, partial curve]"
CCCSc1cc(NCCOC(C)=O)c([N+](=O)[O-])c2nonc12,,"inconclusive: 29.9 µM [inhibitor, partial curve]"
Cc1ccccc1N1CCN(C(=S)c2ccc(-c3ccc([N+](=O)[O-])cc3)o2)CC1,,"inconclusive: 23.8 µM [inhibitor, partial curve]"
Cc1occc1C(=O)Nc1c(F)c(F)c(F)c(F)c1F,,"inconclusive: 29.9 µM [inhibitor, single point]"
COc1ccccc1NC(=O)N[C@@H](Cc1c[nH]c2ccccc12)C(=O)NN,,"inconclusive: 33.6 µM [inhibitor, partial curve]"
C/C(=N\NC(=O)c1cc2c(s1)CCC(C)C2)c1ccncc1 (configuration not stated),inactive: -1.11%,
CC(C)Nc1nc(Nc2ccc(C(N)=O)cc2)c2sccc2n1,inactive: -10.7%,
O=C(O)c1cc(S(=O)(=O)N(Cc2ccccc2)c2cccc(C(F)(F)F)c2)ccc1Cl,,"inconclusive: 67 µM [inhibitor, partial curve]"
Cc1cc(C(=O)N2CCOCC2)ccc1[N+](=O)[O-],,"inconclusive: 29.9 µM [inhibitor, single point]"
CCOc1ccc(-n2c(N)c(C(=O)N3CCN(C)CC3)sc2=S)cc1,inactive: -8.3%,
CCOC(=O)c1c(N2C(=O)Nc3cc(Cl)c(Cl)cc3N2O)sc2c1CCCCC2,,active: 13.4 µM

# Reference: PubChem BioAssay AID720504 (National Center for Advancing Translational Sciences (NCATS), 2013)
